Results as given in publication doi:10.1101/2020.08.04.235721.
These are yes or no findings as the source states them, for the method shown. In cells and extracts the contact can be indirect. Some binding calls cover weakened binding; strength is not graded here.

Biological target: T1, iron regulatory protein 1 (IRP1), endogenous in Jurkat cells (human (endogenous in Jurkat)) (UniProt P21399)
T1 sequence: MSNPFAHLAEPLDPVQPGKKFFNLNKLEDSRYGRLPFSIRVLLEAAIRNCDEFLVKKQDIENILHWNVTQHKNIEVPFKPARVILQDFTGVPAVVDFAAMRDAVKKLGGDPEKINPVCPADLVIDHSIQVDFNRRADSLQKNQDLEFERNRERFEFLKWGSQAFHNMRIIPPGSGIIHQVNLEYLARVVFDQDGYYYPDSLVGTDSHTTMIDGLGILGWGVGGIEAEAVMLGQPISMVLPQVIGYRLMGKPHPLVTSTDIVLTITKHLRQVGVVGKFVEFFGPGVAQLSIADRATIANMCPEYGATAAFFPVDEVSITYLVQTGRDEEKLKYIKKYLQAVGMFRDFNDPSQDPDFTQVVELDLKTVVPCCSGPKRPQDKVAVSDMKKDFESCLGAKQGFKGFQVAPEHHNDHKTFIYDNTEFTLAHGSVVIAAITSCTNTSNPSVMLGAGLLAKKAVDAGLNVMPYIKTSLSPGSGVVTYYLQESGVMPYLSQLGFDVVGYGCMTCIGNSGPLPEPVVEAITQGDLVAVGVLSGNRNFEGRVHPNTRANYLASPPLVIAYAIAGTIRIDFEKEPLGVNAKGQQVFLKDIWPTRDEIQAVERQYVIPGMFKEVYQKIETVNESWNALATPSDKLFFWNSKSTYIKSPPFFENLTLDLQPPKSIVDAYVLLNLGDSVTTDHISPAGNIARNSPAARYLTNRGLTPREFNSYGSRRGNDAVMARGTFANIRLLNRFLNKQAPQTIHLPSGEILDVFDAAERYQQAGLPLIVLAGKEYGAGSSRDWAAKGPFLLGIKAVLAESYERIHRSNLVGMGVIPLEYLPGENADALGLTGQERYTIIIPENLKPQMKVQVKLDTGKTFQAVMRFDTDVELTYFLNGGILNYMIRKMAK
Assay: co-IP

B1: thioredoxin 1 (Trx1), endogenous in Jurkat cells (protein, UniProt P10599 1-105)
chain: MVKQIESKTAFQEALDAAGDKLVVVDFSATWCGPCKMIKPFFHSLSEKYSNVIFLEVDVDDCQDVASECEVKCMPTFQFFKKGQKVGEFSGANKEKLEATINELV
binding: binds
